Here are results for 1 molecule from publication PMC10192418, “High-affinity peptides developed against calprotectin and their application as synthetic ligands in diagnostic assays” (Nature Communications, 2023).

The target in this assay is non-tetrameric mutant (E78A) of the recombinant calprotectin (human). As to the kind of experiment: fluorescence polarisation; calprotectin serially diluted, fluorescent peptide at 20 nM; 20 mM HEPES, 100 mM NaCl, 2 mM CaCl2, pH 7.5, 1 mM DTT, 0.01% Tween-20; tetrameric calprotectin; Kd calculated on the concentration of the heterodimer (1:1 heterodimer:peptide); both purified.

Results are given in words; binding and its absence hold for the method and conditions named.

As for RSPESVAFPMFQSHWYSG (5(6)-carboxyfluorescein on the N-terminus) [linear peptide 3], the binding entry is reported as “no binding”.
